Measurements published in doi:10.1101/244152.
These are yes or no findings as the source states them, for the method shown. Binding seen in cells or lysates may run through a third protein. A yes stands for co-enrichment or nearness to the bait. Other partners may have been found. For some of these results: Tags and fused reporters may be left off the sequences shown. Each block holds one molecule with its values, some of them ahead of it.

Protein sequences, listed by entry. Tags and fused reporters are not part of them.
UniProt Q92560: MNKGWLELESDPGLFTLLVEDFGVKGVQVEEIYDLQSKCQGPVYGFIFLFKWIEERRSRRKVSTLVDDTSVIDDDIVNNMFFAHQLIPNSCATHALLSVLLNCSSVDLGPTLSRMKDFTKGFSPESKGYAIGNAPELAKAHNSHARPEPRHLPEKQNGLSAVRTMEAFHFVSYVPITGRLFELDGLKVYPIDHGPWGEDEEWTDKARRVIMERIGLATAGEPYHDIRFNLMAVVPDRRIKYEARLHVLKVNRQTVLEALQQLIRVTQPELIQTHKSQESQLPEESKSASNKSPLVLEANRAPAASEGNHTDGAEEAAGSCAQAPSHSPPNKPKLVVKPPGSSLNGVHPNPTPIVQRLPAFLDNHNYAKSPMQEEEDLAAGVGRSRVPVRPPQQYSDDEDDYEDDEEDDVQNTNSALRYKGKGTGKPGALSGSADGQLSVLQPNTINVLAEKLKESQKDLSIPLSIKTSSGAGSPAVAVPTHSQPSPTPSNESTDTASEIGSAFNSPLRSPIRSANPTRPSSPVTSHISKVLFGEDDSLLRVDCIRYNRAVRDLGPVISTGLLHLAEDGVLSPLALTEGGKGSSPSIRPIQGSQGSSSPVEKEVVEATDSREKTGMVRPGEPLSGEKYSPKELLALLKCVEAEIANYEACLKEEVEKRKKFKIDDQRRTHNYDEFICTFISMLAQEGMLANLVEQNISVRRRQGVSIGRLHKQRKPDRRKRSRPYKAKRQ
UniProt Q76L83: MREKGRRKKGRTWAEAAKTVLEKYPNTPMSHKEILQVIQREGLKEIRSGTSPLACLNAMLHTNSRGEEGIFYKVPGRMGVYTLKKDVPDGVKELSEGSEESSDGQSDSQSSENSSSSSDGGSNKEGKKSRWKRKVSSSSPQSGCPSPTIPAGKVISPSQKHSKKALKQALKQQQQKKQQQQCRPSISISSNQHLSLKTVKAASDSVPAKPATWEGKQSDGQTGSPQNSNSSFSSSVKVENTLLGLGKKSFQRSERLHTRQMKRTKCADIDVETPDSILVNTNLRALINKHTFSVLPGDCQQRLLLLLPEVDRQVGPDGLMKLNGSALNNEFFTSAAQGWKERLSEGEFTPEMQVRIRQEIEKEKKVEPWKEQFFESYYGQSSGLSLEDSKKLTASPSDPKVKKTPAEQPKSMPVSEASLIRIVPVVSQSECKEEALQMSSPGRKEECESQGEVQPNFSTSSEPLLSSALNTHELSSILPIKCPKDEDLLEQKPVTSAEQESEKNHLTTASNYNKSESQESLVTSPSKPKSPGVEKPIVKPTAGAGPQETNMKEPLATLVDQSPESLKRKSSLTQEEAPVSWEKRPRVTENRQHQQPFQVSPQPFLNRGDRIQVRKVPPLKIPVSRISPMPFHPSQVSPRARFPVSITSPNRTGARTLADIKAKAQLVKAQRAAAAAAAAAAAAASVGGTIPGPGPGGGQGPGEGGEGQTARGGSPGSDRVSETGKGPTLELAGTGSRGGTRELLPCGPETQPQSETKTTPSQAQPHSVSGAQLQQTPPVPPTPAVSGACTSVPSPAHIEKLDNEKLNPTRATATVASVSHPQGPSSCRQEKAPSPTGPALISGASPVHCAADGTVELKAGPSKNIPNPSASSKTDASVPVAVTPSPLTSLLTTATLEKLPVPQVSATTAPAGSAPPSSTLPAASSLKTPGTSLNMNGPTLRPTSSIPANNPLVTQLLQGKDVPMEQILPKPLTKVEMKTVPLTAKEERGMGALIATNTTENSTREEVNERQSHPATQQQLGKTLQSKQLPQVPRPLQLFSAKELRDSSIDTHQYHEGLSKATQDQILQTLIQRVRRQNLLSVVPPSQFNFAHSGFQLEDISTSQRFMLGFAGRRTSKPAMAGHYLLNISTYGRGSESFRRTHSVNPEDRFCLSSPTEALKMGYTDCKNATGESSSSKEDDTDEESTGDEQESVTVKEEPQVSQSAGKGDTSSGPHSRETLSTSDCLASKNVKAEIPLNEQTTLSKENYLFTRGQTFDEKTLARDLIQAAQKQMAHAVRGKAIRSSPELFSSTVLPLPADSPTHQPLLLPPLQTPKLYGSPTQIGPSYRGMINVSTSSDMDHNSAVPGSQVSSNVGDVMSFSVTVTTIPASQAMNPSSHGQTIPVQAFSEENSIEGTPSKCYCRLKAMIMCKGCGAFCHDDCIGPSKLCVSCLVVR
UniProt Q9BZ95: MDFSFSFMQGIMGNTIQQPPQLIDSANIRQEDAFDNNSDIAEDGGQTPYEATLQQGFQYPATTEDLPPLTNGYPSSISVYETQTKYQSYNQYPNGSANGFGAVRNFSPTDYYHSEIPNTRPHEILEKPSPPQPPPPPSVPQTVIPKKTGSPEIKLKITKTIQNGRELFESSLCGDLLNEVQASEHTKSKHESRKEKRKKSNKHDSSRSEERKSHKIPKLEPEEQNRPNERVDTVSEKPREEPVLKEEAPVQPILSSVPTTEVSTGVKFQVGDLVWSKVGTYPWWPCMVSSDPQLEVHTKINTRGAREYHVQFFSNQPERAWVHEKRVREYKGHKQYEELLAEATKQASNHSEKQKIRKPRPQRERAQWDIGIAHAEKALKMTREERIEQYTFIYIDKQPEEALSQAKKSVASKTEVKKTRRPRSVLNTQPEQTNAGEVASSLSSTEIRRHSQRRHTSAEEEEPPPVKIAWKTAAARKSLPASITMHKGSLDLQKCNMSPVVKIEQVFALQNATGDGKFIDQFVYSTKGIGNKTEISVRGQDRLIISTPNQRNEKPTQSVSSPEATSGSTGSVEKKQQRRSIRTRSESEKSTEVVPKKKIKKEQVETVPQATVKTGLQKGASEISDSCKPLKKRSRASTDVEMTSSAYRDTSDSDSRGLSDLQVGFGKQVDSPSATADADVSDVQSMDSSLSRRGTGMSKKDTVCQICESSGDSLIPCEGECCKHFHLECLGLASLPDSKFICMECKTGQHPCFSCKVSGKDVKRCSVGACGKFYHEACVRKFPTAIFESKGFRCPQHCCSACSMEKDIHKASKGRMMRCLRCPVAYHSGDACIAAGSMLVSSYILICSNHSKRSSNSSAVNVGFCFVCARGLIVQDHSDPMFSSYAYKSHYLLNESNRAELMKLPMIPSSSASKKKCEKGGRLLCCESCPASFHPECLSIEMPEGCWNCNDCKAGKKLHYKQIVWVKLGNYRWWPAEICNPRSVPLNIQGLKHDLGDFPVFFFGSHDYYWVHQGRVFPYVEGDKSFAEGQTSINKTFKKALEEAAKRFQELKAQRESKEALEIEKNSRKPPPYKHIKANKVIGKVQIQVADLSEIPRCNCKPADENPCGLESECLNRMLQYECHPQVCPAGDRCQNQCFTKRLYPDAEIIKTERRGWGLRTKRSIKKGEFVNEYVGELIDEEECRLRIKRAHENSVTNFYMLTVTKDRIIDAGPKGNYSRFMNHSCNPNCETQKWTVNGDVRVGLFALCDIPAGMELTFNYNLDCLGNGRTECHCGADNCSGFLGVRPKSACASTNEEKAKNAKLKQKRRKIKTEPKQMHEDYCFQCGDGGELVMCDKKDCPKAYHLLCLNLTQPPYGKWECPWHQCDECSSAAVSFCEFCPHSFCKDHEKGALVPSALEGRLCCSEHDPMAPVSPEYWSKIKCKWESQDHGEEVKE

Experiments:
Assay in all cases: affinity purification with mass spectrometry
[1] = target: T1, 2xFlag-2xHA-tagged KDM1B stably expressed in HeLa-S3 cells (UniProt Q8NB78)
T1 sequence: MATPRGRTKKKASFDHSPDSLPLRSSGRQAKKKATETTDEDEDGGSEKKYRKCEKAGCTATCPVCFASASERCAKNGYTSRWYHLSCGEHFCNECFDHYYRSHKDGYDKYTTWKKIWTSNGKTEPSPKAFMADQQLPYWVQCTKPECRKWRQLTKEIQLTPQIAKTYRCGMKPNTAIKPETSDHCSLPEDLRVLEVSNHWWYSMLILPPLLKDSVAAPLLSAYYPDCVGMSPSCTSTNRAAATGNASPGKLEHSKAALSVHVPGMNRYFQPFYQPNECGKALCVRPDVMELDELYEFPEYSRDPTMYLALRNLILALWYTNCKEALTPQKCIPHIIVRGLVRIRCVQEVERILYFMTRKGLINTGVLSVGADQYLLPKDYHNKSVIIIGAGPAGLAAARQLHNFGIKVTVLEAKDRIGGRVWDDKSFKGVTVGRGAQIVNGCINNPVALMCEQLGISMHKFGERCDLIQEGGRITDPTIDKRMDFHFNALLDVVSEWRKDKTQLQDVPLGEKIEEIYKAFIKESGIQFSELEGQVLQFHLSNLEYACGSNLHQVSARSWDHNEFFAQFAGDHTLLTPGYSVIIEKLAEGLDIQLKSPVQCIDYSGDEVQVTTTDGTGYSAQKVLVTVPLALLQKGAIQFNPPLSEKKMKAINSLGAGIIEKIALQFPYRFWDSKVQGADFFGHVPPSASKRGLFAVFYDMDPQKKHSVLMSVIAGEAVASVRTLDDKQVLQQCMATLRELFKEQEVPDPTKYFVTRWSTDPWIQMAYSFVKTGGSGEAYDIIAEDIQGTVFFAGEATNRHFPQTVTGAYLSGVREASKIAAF

[2] = target: 2xFlag-2xHA-tagged BAP1 (BRCA1 Associated Protein 1) stably expressed in HeLa-S3 cells (UniProt Q92560)
[3] = target: 2xFlag-2xHA-tagged ASXL2 stably expressed in HeLa-S3 cells (UniProt Q76L83)

binding [1]: binds
Molecule: ASXL2 (from UniProt Q76L83 1-1435)

binding [1]: binds
Molecule: NSD3 (from UniProt Q9BZ95 1-1437)

binding [2]: binds
B1: MBD5 (protein, UniProt Q9P267 1-1494)
chain: MNGGKECDGGDKEGGLPAIQVPVGWQRRVDQNGVLYVSPSGSLLSCLEQVKTYLLTDGTCKCGLECPLILPKVFNFDPGAAVKQRTAEDVKADEDVTKLCIHKRKIIAVATLHKSMEAPHPSLVLTSPGGGTNATPVVPSRAATPRSVRNKSHEGITNSVMPECKNPFKLMIGSSNAMGRLYVQELPGSQQQELHPVYPRQRLGSSEHGQKSPFRGSHGGLPSPASSGSQIYGDGSISPRTDPLGSPDVFTRSNPGFHGAPNSSPIHLNRTPLSPPSVMLHGSPVQSSCAMAGRTNIPLSPTLTTKSPVMKKPMCNFSTNMEIPRAMFHHKPPQGPPPPPPPSCALQKKPLTSEKDPLGILDPIPSKPVNQNPVIINPTSFHSNVHSQVPMMNVSMPPAVVPLPSNLPLPTVKPGHMNHGSHVQRVQHSASTSLSPSPVTSPVHMMGTGIGRIEASPQRSRSSSTSSDHGNFMMPPVGPQATSSGIKVPPRSPRSTIGSPRPSMPSSPSTKSDGHHQYKDIPNPLIAGISNVLNTPSSAAFPTASAGSSSVKSQPGLLGMPLNQILNQHNAASFPASSLLSAAAKAQLANQNKLAGNNSSSSSNSGAVAGSGNTEGHSTLNTMFPPTANMLLPTGEGQSGRAALRDKLMSQQKDALRKRKQPPTTVLSLLRQSQMDSSAVPKPGPDLLRKQGQGSFPISSMSQLLQSMSCQSSHLSSNSTPGCGASNTALPCSANQLHFTDPSMNSSVLQNIPLRGEAVHCHNANTNFVHSNSPVPNHHLAGLINQIQASGNCGMLSQSGMALGNSLHPNPPQSRISTSSTPVIPNSIVSSYNQTSSEAGGSGPSSSIAIAGTNHPAITKTTSVLQDGVIVTTAAGNPLQSQLPIGSDFPFVGQEHALHFPSNSTSNNHLPHPLNPSLLSSLPISLPVNQQHLLNQNLLNILQPSAGEGDMSSINNTLSNHQLTHLQSLLNNNQMFPPNQQQQQLLQGYQNLQAFQGQSTIPCPANNNPMACLFQNFQVRMQEDAALLNKRISTQPGLTALPENPNTTLPPFQDTPCELQPRIDPSLGQQVKDGLVVGGPGDASVDAIYKAVVDAASKGMQVVITTAVNSTTQISPIPALSAMSAFTASIGDPLNLSSAVSAVIHGRNMGGVDHDGRLRNSRGARLPKNLDHGKNVNEGDGFEYFKSASCHTSKKQWDGEQSPRGERNRWKYEEFLDHPGHIHSSPCHERPNNVSTLPFLPGEQHPILLPPRNCPGDKILEENFRYNNYKRTMMSFKERLENTVERCAHINGNRPRQSRGFGELLSTAKQDLVLEEQSPSSSNSLENSLVKDYIHYNGDFNAKSVNGCVPSPSDAKSISSEDDLRNPDSPSSNELIHYRPRTFNVGDLVWGQIKGLTSWPGKLVREDDVHNSCQQSPEEGKVEPEKLKTLTEGLEAYSRVRKRNRKSGKLNNHLEAAIHEAMSELDKMSGTVHQIPQGDRQMRPPKPKRRKISR

binding [3]: binds
B2: KDM1B (protein, UniProt Q8NB78 1-822)
chain: T1 sequence
